Data taken from the supplement of paper PMC10849652.
Some of the results follow.

Protein sequences, listed by entry. Tags and fused reporters are not part of them. Lines headed by an entry give the natural chain unless they say otherwise; changes in a name come on top.
UniProt Q9BSU1: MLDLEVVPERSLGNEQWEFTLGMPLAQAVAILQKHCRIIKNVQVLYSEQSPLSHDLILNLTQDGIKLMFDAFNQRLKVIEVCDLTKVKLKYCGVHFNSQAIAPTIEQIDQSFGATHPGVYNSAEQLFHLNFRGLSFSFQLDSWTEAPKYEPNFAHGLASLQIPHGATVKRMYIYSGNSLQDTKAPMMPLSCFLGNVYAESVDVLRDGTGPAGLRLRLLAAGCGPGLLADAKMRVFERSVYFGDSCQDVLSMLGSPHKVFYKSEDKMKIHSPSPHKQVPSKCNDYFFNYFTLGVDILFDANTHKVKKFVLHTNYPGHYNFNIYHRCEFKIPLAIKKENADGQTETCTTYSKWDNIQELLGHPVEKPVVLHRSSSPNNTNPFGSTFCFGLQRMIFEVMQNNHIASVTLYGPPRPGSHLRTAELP
UniProt P00736: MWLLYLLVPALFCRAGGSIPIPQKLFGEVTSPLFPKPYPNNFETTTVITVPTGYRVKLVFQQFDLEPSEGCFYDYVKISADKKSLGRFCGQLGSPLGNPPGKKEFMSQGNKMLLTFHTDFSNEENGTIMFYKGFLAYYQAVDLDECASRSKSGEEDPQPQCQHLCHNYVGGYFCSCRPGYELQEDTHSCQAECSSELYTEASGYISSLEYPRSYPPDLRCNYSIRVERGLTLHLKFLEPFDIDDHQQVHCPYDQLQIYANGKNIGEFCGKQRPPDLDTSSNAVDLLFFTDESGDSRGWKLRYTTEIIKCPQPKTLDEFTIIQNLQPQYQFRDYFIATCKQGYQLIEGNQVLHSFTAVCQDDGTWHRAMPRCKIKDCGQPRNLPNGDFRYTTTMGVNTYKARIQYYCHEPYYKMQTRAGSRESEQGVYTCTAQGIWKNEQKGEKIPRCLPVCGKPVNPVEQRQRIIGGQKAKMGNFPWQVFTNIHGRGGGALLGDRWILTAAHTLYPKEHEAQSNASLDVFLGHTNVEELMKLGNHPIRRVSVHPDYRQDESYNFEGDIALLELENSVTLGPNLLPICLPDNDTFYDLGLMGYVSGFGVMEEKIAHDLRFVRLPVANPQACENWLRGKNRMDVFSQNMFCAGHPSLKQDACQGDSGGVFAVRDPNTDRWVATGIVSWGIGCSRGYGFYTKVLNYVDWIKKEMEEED
UniProt Q5SQH8: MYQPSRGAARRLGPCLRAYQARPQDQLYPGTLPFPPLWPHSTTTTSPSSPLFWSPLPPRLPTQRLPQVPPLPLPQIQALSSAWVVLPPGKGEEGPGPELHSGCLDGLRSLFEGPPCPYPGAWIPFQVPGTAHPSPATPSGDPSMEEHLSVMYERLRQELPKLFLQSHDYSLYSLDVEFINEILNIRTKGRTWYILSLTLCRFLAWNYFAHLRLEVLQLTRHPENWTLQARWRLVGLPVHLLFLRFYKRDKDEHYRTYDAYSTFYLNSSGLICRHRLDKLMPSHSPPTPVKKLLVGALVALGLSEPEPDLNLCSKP
UniProt Q9NX04: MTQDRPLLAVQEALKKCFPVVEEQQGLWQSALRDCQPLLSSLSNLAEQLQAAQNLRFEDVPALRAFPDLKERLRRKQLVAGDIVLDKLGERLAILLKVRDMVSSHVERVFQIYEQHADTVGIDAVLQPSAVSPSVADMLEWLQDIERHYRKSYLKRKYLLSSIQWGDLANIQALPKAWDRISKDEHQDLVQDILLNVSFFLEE
UniProt Q9NQ89: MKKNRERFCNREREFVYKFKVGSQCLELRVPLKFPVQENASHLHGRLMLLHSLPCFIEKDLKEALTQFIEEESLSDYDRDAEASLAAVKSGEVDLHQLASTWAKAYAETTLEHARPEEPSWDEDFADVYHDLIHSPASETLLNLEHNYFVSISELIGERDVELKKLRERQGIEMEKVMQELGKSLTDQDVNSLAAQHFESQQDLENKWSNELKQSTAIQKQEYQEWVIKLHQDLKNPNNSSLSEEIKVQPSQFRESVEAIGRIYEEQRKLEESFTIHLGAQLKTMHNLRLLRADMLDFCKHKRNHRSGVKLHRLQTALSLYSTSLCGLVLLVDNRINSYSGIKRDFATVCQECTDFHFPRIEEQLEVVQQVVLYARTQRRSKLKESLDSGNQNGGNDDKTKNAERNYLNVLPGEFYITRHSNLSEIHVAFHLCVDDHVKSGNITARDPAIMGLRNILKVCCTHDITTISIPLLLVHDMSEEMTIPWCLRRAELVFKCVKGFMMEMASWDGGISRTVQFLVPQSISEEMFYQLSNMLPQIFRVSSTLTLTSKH
UniProt A1L170: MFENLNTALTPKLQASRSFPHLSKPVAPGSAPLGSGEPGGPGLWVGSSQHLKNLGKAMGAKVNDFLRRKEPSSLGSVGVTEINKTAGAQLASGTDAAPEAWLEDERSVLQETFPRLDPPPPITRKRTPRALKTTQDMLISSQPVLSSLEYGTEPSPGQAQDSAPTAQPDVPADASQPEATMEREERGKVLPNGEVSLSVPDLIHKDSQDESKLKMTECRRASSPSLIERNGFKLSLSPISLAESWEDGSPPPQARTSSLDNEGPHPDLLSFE
UniProt Q9BTV7: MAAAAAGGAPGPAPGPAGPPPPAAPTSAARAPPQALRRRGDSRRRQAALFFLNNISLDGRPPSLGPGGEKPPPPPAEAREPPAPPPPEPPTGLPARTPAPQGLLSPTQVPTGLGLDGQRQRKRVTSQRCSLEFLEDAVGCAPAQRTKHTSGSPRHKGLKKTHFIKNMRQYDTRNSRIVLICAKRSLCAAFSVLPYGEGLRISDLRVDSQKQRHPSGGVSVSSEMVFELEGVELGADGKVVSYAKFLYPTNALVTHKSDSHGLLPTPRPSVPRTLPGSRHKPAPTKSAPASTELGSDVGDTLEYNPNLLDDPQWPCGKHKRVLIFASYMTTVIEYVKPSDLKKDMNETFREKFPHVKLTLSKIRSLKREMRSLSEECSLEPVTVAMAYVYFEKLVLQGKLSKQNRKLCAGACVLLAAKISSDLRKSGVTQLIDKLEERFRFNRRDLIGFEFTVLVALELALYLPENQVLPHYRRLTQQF
UniProt Q9NSK7: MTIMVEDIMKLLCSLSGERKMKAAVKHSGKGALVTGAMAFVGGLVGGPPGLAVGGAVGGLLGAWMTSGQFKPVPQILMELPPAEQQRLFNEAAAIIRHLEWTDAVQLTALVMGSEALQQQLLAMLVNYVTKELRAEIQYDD

Compound: COc1cc2nc(-c3cc(F)ccc3O)nc(N[C@@H]3CNC[C@H]3C(C)(C)O)c2cc1OC
Assay: log2 fold change, soluble protein after heating vs DMSO (PISA); higher = thermal stabilisation; K562 lysate, 10 uM; active = over 0.2 and 3.5 SD of the protein, either way, in both replicates (recomputed)
Method in brief: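 To prepare the extract, K562 pellets were dounce-homogenised in PBS pH 7.4 with 1 mM MgCl2, giving crude material at 1 mg/mL protein. This was treated with 10 μM compound for 30 min, then heated in aliquots for 3 min over 48°C-58°C before pooling and addition of NP-40 to 0.5% at 4°C. Centrifugation at 21,000xg for 90 min left soluble protein in the supernatant, which TMTpro 16plex LC-MS/MS quantified with equalised channel sums. Results are log-two fold changes in thermal stability compared with solvent controls, from duplicates.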

log2 fold change, inactive:
CAMKMT (UniProt Q7Z624) -0.076, CAND1 (UniProt F5H6I6) 0.027, C16orf70 (UniProt Q9BSU1) 0.076, C1R (UniProt P00736) 0.086, CAPNS1 (UniProt K7ES78) -0.083, C6orf136 isoform 4 (UniProt Q5SQH8) -0.01, C1orf109 (UniProt Q9NX04) -0.076, C12orf4 (UniProt Q9NQ89) 0.165, C1orf226 isoform 2 (UniProt A1L170) 0.169, CALR (UniProt K7EJB9) 0.008, CA2 (UniProt P00918) -0.009, CANX (UniProt D6RHJ3) 0.07, CABLES2 (UniProt Q9BTV7) 0.131, C19orf12 (UniProt Q9NSK7) 0.016, CAPNS1 (UniProt U3KPR7) 0.024
